# Measurements published in patent US20040235723A1, “Method of screening abc protein promoter/inhibitor” (priority 2001, published 2004).
# Amino acid sequences for entries named in this document (tags omitted). A change or cut given only in a name is not applied to a line headed by its entry.
# UniProt P33302: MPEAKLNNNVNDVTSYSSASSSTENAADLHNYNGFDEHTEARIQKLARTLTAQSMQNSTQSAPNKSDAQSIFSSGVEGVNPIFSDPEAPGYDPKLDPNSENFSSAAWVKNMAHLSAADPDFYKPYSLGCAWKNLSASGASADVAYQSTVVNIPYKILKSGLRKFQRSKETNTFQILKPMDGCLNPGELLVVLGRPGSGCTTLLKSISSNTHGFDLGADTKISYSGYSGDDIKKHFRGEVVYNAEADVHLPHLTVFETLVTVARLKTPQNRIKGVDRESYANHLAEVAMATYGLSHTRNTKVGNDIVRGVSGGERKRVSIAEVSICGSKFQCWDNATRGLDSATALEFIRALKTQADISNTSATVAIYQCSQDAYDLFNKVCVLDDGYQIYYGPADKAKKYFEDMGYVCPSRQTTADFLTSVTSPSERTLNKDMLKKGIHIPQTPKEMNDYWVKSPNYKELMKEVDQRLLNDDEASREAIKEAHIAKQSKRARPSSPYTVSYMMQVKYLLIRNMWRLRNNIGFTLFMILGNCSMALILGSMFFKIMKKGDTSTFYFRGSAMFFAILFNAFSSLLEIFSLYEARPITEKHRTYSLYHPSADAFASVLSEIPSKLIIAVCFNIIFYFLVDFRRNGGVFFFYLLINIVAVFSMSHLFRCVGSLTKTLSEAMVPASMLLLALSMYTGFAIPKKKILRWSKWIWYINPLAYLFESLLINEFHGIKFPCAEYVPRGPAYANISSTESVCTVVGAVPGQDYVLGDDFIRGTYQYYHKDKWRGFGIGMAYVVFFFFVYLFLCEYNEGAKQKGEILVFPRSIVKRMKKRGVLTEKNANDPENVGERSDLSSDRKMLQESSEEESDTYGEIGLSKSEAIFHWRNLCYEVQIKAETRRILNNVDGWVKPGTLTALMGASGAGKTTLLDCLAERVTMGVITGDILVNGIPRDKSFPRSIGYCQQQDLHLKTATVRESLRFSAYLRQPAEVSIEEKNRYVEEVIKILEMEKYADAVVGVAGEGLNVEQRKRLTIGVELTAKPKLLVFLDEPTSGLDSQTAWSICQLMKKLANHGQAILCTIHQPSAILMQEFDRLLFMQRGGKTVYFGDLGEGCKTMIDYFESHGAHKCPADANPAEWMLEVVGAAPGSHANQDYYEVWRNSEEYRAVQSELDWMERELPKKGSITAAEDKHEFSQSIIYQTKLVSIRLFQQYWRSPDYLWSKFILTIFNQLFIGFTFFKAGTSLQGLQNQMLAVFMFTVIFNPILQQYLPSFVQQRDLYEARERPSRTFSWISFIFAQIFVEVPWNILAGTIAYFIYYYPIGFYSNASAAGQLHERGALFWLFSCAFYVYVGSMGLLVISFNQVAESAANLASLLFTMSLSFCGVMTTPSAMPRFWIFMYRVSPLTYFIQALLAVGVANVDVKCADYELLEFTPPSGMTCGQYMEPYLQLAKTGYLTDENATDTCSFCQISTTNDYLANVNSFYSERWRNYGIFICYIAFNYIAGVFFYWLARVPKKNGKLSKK
# “Also recorded” adds a separate entry of the source. At least one structure is not confirmed: it was looked up by name or label, or the drawing left a doubt.
# How the values were obtained:
# [1] = target: T1, PDR5 transporter (Saccharomyces cerevisiae, UniProt P33302); experiment: Agar well diffusion growth inhibition assay for PDR5 transporter inhibition, KHW3+pYI-PDR5; format: cell-based; settings: 50 μl per well
# T1 construct: expressed in transfected cells; host or cells: Saccharomyces cerevisiae KHW3 (Δsyr1/erg3::HIS3 Δpdr5::LEU2 Δsnq2::HIS3) carrying plasmid pYI-PDR5
# Method: Yeast cells grown on an SD-uracil medium were suspended in a soft agar dissolved in 4 ml at 50° C. so as to make 1×10^5 cells/ml, mixed after addition of a drug such as cycloheximide or cerulenin if necessary and layered on an SD-uracil medium containing the drug of the same concentration. After the soft agar was solidified, a pore of 8 mm diameter was formed on a part of the soft agar and 50 μl of the test substance were poured thereinto. The plate was incubated at 32° C. for 48 hours and […] of growth inhibition ring around the well was measured whereupon activity of the test substance for inhibiting the discharge of cycloheximide and cerulenin by the PDR transporter was evaluated.
# Unit for the growth inhibition activity was defined as follows. Thus, when a triple gene disruption strain KHW3 (Δsyr1/erg3::HIS3 Δpdr5::LEU2 Δsnq2::HIS3) was used and diameter of the inhibition ring measured by the above agar well diffusion method was plotted to logarithm of cycloheximide concentration where cycloheximide of 8-200 μg/ml was used as a standard substance, it was noted there was a linear relation as shown in FIG. 1. Growth inhibition activity showing an inhibition ring of 20 mm to KHW3 containing pYI was defined as 20 inhibition units per ml (IU/ml) and, using the above-mentioned standard curve of cycloheximide, inhibition units of test substances were calculated. […]
# Inhibition activity of KPI for a PDR5 transporter was analyzed in detail by an agar well diffusion method mentioned in Example 1. A triple gene disruption strain KHW3 containing pYI vector (KHW3+pYI) and KHW3 containing a plasmid pYI-PDR5 highly expressing PDR5 (KHW3+pYI-PDR5) were used as indication bacteria and the size of inhibition ring by growth inhibition in the co-presence of cycloheximide and cerulenin was compared with the size of the inhibition ring in the absence of both drugs and the inhibition activity of KPI for a PDR5 transporter was evaluated. […]
# [2] = target: T1, PDR5 transporter; experiment: Intracellular accumulation of rhodamine 6G measured by fluorometer; format: cell-based; settings: 25 μg/ml FK 506, 2 hours; 1 μg/ml rhodamine 6G, 30 minutes
smiles,measurement,setting,value
C=CC[C@@H]1/C=C(\C)C[C@H](C)C[C@H](OC)[C@H]2O[C@@](O)(C(=O)C(=O)N3CCCC[C@H]3C(=O)O[C@H](/C(C)=C/[C@@H]3CC[C@@H](O)[C@H](OC)C3)[C@H](C)[C@@H](O)CC1=O)[C@H](C)C[C@@H]2OC [FK 506],Growth inhibition of KHW3+pYI-PDR5 with coexisting cerulenin,"[1]; FK 506 12.5 μg/ml, cerulenin 0.4 μg/ml in medium",growth of KHW3+pYI-PDR5 was inhibited; also recorded: growth of the indicator bacterium was suppressed
same,Growth inhibition of KHW3+pYI-PDR5 with coexisting cycloheximide,"[1]; FK 506 12.5 μg/ml, cycloheximide 0.04 μg/ml in medium",growth of KHW3+pYI-PDR5 was inhibited; also recorded: growth of the indicator bacterium was suppressed
same,Growth inhibition of KHW3+pYI-PDR5 by test substance alone,"[1]; FK 506 solution 12.5 μg/ml, 32° C., 48 hours, no drug in medium",did not inhibit the growth of KHW3+pYI-PDR5
same,"Accumulated amount of rhodamine 6G in KHW3+pYI-PDR5 cells, presence versus absence of FK 506",[2],lower than the accumulated amount by KHW3+pYI-PDR5 in the presence of FK 506; also recorded: increased
